Counter-ions that a name gives are not always drawn. The list shows a part of the results. Repeats in this data set agree poorly, so a single value says little.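 HEK293T cells were given each compound shortly before transfection with a reporter in which red mCherry is followed by the SARS-CoV-2 frameshift element and then GFP in the −1 frame, so GFP appears only after frameshifting.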
Test system: HEK293T
Assay: percent viability (nuclei count) relative to control; higher = more viable cells
Conditions: 10 µM; 24 h

| SMILES | percent viability |
| --- | --- |
| CC(C)=CCN1CC[C@@]2(C)c3cc(O)ccc3C[C@@H]1[C@@H]2C [Fortral] | 322% |
| CC(=O)[C@@]1(O)CC[C@H]2[C@@H]3CCC4=CC(=O)CC[C@]4(C)[C@@]3(F)[C@@H](O)C[C@@]21C [flugestone] | 96% |
| CNC(=O)Oc1ccc2c(c1)[C@]1(C)CCN(C)[C@@H]1N2C [Physostigmine sulfate] | 267% |
| Oc1ccc(Cl)cc1 | 149% |
| C[C@]12CC[C@H]3[C@@H](CCC4=C(Cl)C(=O)CC[C@@]43C)[C@@H]1CC[C@@H]2O [clostebol] | 60.9% |
| CC(C)=CC1C(C(=O)OCN2C(=O)C3=C(CCCC3)C2=O)C1(C)C (stereo not drawn) [tetramethrin] | 337% |
| O=C1NCN(c2ccccc2)C12CCN(CCCOc1ccc(F)cc1)CC2 [spiramide] | 35.4% |
| COc1ccc2c3c1O[C@H]1C(=O)CC[C@@]4(O)[C@@H](C2)N(C)CC[C@]314 [oxycodone] | 255% |
| C=CC[C@]1(O)CC[C@H]2[C@@H]3CCC4=CC(=O)CCC4=C3C=C[C@@]21C | 263% |
| CCC1(CC)C(=O)NC(=O)N(c2ccccc2)C1=O [phetharbital] | 153% |
| Cc1ccc(/N=C/N(C)/C=N/c2ccc(C)cc2C)c(C)c1 [Amitraz] | 428% |
| C[C@H]1CCC[C@@H](O)CCCCCc2cc(O)cc(O)c2C(=O)O1 [taleranol] | 180% |
| O=C(O)CCCO | 170% |
| C[C@]12O[C@H](C[C@]1(O)CO)n1c3ccccc3c3c4c(c5c6ccccc6n2c5c31)CNC4=O [lestaurtinib] | 35.2% |
| CCc1ccc(C2CCNCC2)cc1 [enefexine] | 175% |
| CN1[C@@H]2C[C@@H](OC(=O)[C@H](CO)c3ccccc3)C[C@H]1[C@@H]1O[C@@H]12 [Scopolamine] | 254% |
| COc1ccc2c3c1O[C@H]1[C@@H](O)C=C[C@H]4[C@@H](C2)NCC[C@@]341 | 236% |
| C[C@@H]1O[C@@H](O[C@@H]2C=C3CC[C@@H]4[C@H](CC[C@]5(C)[C@@H](c6ccc(=O)oc6)CC[C@]45O)[C@@]3(C)CC2)[C@H](O)[C@H](O)[C@H]1O [proscillaridin] | 5.16% |
| C[C@]12C=CC(=O)C=C1CC[C@@H]1[C@@H]2CC[C@@]2(C)[C@H]1CC[C@]2(C)O [metandienone] | 358% |
| Cc1cccc(C(C)c2c[nH]cn2)c1C (stereo not drawn) [medetomidine] | 98.6% |
| C[C@]12N[C@H](Cc3ccccc31)c1ccccc12 [dizocilpine] | 135% |
| FC(F)(F)c1cccc(C2=CCN(CCc3ccc4ccccc4c3)CC2)c1 [xaliproden] | 134% |
| CCCCCCCCCCCCCCCC[n+]1ccccc1 [cetylpyridinium chloride] | 16.7% |

Test system: SARS-CoV-2 -1 PRF reporter mCherry-FSE-GFP(-1)
Assay: mCherry (red) intensity as percent of control; higher = higher upstream reporter expression
Conditions: 10 µM; 24 h; HEK293T

| SMILES | mCherry |
| --- | --- |
| O=c1n(Cl)c(=O)n(Cl)c(=O)n1Cl [symclosene] | 79.2% |
| CC(C)(C)NCC(O)c1ccc(O)c(O)c1 (stereo not drawn) [colterol] | 104% |
| NN=C(N)N | 107% |
| COC(C)(C)CCCC(C)C/C=C/C(C)=C/C(=O)OC(C)C (stereo not drawn) | 103% |
| CCCC(Cc1ccccc1)N1CCCC1 (stereo not drawn) [prolintane] | 63.3% |
| CN1C(=O)COc2c(C(=O)NC3CN4CCC3CC4)cc(Cl)cc21 (stereo not drawn) [azasetron] | 95.5% |
| CCCOC(=O)Cc1ccc(OCC(=O)N(CC)CC)c(OC)c1 [propanidid] | 61.6% |
| CN[C@]1(c2ccccc2Cl)CCCCC1=O [esketamine] | 86.6% |
| CCC1(CC)C(=O)NCC(C)C1=O (stereo not drawn) [methyprylon] | 116% |
| C[C@H]1CC(=O)C[C@@H]2CC[C@H]3[C@@H]4CC[C@H](O)[C@@]4(C)CC[C@@H]3[C@]21C [mesterolone] | 102% |
| C[C@]12CCC(=O)C(O)=C1CC[C@@H]1[C@@H]2CC[C@@]2(C)[C@H]1CC[C@]2(C)O [oxymesterone] | 95.9% |
| CCC(C(N)=O)N1CCCC1=O (stereo not drawn) [etiracetam] | 95% |
| O=C1CCO1 [propiolactone] | 118% |
| COc1cc2c(c(OC)c1OC)-c1ccc(OC)c(=O)cc1[C@@H](NC(C)=O)CC2 | 137% |
| C[C@]12CC[C@H](O)CC1=CC[C@@H]1[C@@H]2CC[C@]2(C)C(=O)CC[C@@H]12 | 104% |
| COc1ccc2c(c1OC)C(=O)O[C@@H]2[C@H]1c2cc3c(cc2CCN1C)OCO3 | 105% |
| CN1C(=O)C(O)N=C(c2ccccc2)c2cc(Cl)ccc21 (stereo not drawn) [temazepam] | 48.6% |
| CC(C)=CCN1CC[C@@]2(C)c3cc(O)ccc3C[C@@H]1[C@@H]2C [Fortral] | 99.1% |
| CC(=O)[C@@]1(O)CC[C@H]2[C@@H]3CCC4=CC(=O)CC[C@]4(C)[C@@]3(F)[C@@H](O)C[C@@]21C [flugestone] | 88.7% |
| CNC(=O)Oc1ccc2c(c1)[C@]1(C)CCN(C)[C@@H]1N2C [Physostigmine sulfate] | 88.1% |

| SMILES | mCherry |
| --- | --- |
| Oc1ccc(Cl)cc1 | 121% |
| C[C@]12CC[C@H]3[C@@H](CCC4=C(Cl)C(=O)CC[C@@]43C)[C@@H]1CC[C@@H]2O [clostebol] | 94.4% |
| CC(C)=CC1C(C(=O)OCN2C(=O)C3=C(CCCC3)C2=O)C1(C)C (stereo not drawn) [tetramethrin] | 110% |
| O=C1NCN(c2ccccc2)C12CCN(CCCOc1ccc(F)cc1)CC2 [spiramide] | 89.2% |
| COc1ccc2c3c1O[C@H]1C(=O)CC[C@@]4(O)[C@@H](C2)N(C)CC[C@]314 [oxycodone] | 97.7% |
| C=CC[C@]1(O)CC[C@H]2[C@@H]3CCC4=CC(=O)CCC4=C3C=C[C@@]21C | 130% |
| CCC1(CC)C(=O)NC(=O)N(c2ccccc2)C1=O [phetharbital] | 79% |
| Cc1ccc(/N=C/N(C)/C=N/c2ccc(C)cc2C)c(C)c1 [Amitraz] | 61% |
| C[C@H]1CCC[C@@H](O)CCCCCc2cc(O)cc(O)c2C(=O)O1 [taleranol] | 85.8% |
| O=C(O)CCCO | 93.5% |
| C[C@]12O[C@H](C[C@]1(O)CO)n1c3ccccc3c3c4c(c5c6ccccc6n2c5c31)CNC4=O [lestaurtinib] | 685% |
| CCc1ccc(C2CCNCC2)cc1 [enefexine] | 91.5% |
| CN1[C@@H]2C[C@@H](OC(=O)[C@H](CO)c3ccccc3)C[C@H]1[C@@H]1O[C@@H]12 [Scopolamine] | 95.9% |
| COc1ccc2c3c1O[C@H]1[C@@H](O)C=C[C@H]4[C@@H](C2)NCC[C@@]341 | 105% |
| C[C@@H]1O[C@@H](O[C@@H]2C=C3CC[C@@H]4[C@H](CC[C@]5(C)[C@@H](c6ccc(=O)oc6)CC[C@]45O)[C@@]3(C)CC2)[C@H](O)[C@H](O)[C@H]1O [proscillaridin] | 14.8% |
| C[C@]12C=CC(=O)C=C1CC[C@@H]1[C@@H]2CC[C@@]2(C)[C@H]1CC[C@]2(C)O [metandienone] | 81% |
| Cc1cccc(C(C)c2c[nH]cn2)c1C (stereo not drawn) [medetomidine] | 86.8% |
| C[C@]12N[C@H](Cc3ccccc31)c1ccccc12 [dizocilpine] | 73.5% |
| FC(F)(F)c1cccc(C2=CCN(CCc3ccc4ccccc4c3)CC2)c1 [xaliproden] | 73.9% |
| CCCCCCCCCCCCCCCC[n+]1ccccc1 [cetylpyridinium chloride] | 13.7% |

A few values from above:
C[C@]12CC[C@H]3[C@@H](CCC4=C(Cl)C(=O)CC[C@@]43C)[C@@H]1CC[C@@H]2O [clostebol] | mCherry: 94.4%
C=CC[C@]1(O)CC[C@H]2[C@@H]3CCC4=CC(=O)CCC4=C3C=C[C@@]21C | mCherry: 130%
